# Measurements reported in PubChem BioAssay AID1671195 (Yale University, 2021)
# Aim: 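Knockdowns that increase or decrease uptake of fluorescent LDL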 (primary screen)
# System: human Huh7 hepatoma cells
# Knock-down reagent: siRNA pool against human genes, 18 nM
# Timing: about 2 to 2.5 days of knockdown, then 8 h LDL uptake
# Treatment: DiI-labelled LDL at 30 µg/ml for 8 h, in lipoprotein-deficient serum medium
# Read-out: 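Per-cell DiI-LDL intensity by automated imaging; well means scaled to the plate median and given as a robust z-score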
# Reading the numbers: robust z-score: higher = more LDL uptake after knockdown
# Rule for the call: 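Active when two or more replicates show a robust z-score above 2 or below -2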
# In all, the deposit lists about 22,000 reagents; below is a random part of them. About 1,510 of them (6.9%) count as active. 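Active includes knockdowns raising or lowering LDL uptake; positive z-scores mean more uptake, negative mean less.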
The first 3 entries as a preview:
target,PubChem SID,"robust z-score, replicate 1","robust z-score, replicate 2","robust z-score, replicate 3",activity call
KPNA6 (karyopherin subunit alpha 6),SID442898119,-1.16,-0.895,0.664,inactive
ZDHHC2 (zDHHC palmitoyltransferase 2),SID442890999,0.505,0.855,-0.331,inactive
ZNF500 (zinc finger protein 500),SID442898553,-0.355,0.0187,-1.2,inactive

Results, from the start:
target,PubChem SID,"robust z-score, replicate 1","robust z-score, replicate 2","robust z-score, replicate 3",activity call
KPNA6 (karyopherin subunit alpha 6),SID442898119,-1.16,-0.895,0.664,inactive
ZDHHC2 (zDHHC palmitoyltransferase 2),SID442890999,0.505,0.855,-0.331,inactive
ZNF500 (zinc finger protein 500),SID442898553,-0.355,0.0187,-1.2,inactive
NSMF,SID442900777,-1.15,-0.559,-0.706,inactive
DUSP11 (dual specificity phosphatase 11),SID442889858,0.885,0.354,0.256,inactive
LOC401026 (retired record),SID442899092,-0.447,-0.911,-0.369,inactive
PEX7 (peroxisomal biogenesis factor 7),SID442888689,0.477,1.15,0.408,inactive
LINC00484 (long independently transcribed non-coding RNA 484),SID442895348,-0.0805,-0.191,-0.212,inactive
KLF1 (KLF transcription factor 1),SID442903735,-1.35,-1.32,-1.45,inactive
MASTL (microtubule associated serine/threonine kinase like),SID442893363,-0.241,0.864,-0.443,inactive
PAX5 (paired box 5),SID442902988,-1.46,-1.25,-0.865,inactive
SPEM2 (SPEM family member 2),SID442900032,-1.22,-0.917,0.0284,inactive
LOC388006 (retired record),SID442897022,-0.223,-0.29,-0.502,inactive
USP33 (ubiquitin specific peptidase 33),SID442901104,-1.06,-0.848,-0.646,inactive
RNF26 (ring finger protein 26),SID442901177,-0.836,-1.47,-0.281,inactive
PRR16 (proline rich 16),SID442899415,-0.272,-1.54,-0.0389,inactive
LOC440979 (retired record),SID442886412,0.625,1.66,1.22,inactive
LOC401704 (retired record),SID442904668,-1.57,-1.97,-1.84,inactive
OR1L8 (olfactory receptor family 1 subfamily L member 8),SID442891222,0.511,0.518,-0.0827,inactive
H4C13 (H4 clustered histone 13),SID442896569,-0.333,0.542,-1.07,inactive
PDS5A (PDS5 cohesin associated factor A),SID442886067,2.73,-0.37,1.48,inactive
OR6Q1 (olfactory receptor family 6 subfamily Q member 1),SID442885279,1.39,1.74,1.62,inactive
PTF1A (pancreas associated transcription factor 1a),SID442894602,-0.791,1.05,-0.499,inactive
AP3B1 (adaptor related protein complex 3 subunit beta 1),SID442885314,3.06,0.523,1.12,inactive
RRAGA (Ras related GTP binding A),SID442888622,1.77,-0.505,0.805,inactive
INO80D (INO80 complex subunit D),SID442904151,-1.72,-2.04,-0.772,inactive
NME8 (NME/NM23 family member 8),SID442897546,-0.155,-0.861,-0.177,inactive
HAS3 (hyaluronan synthase 3),SID442892956,0.198,0.244,-0.13,inactive
OR52L1 (olfactory receptor family 52 subfamily L member 1),SID442884464,-2.04,-2.15,-2.31,active
KCNJ13 (potassium inwardly rectifying channel subfamily J member 13),SID442901212,-0.897,-0.84,-0.866,inactive
DYNC1I1 (dynein cytoplasmic 1 intermediate chain 1),SID442901627,-1.02,-0.724,-1.05,inactive
XRCC5 (X-ray repair cross complementing 5),SID442890495,0.569,0.569,0.0918,inactive
IFI27 (interferon alpha inducible protein 27),SID442884950,1.29,2.78,1.23,inactive
DNAH10 (dynein axonemal heavy chain 10),SID442899116,-0.602,-0.866,-0.266,inactive
SLC35E2A,SID442883326,3.53,4.66,1.6,active
C5AR2 (complement C5a receptor 2),SID442883539,0.778,4.08,3.29,active
PARPBP (PARP1 binding protein),SID442887972,0.00389,1.76,0.652,inactive
PSG4 (pregnancy specific beta-1-glycoprotein 4),SID442891155,-0.022,0.224,0.768,inactive
TOMM20 (translocase of outer mitochondrial membrane 20),SID442894297,0.72,-0.396,-0.468,inactive
FOXG1 (forkhead box G1),SID442886986,0.532,1.16,1.34,inactive
LTBP3 (latent transforming growth factor beta binding protein 3),SID442888635,1.27,0.584,0.205,inactive
RHPN1 (rhophilin Rho GTPase binding protein 1),SID442890555,-0.265,0.845,0.624,inactive
CZIB (CXXC motif containing zinc binding protein),SID442902726,-0.806,-0.838,-1.77,inactive
SDHB (succinate dehydrogenase complex iron sulfur subunit B),SID442898971,-0.298,-0.616,-0.769,inactive
CSF2 (colony stimulating factor 2),SID442885939,0.808,2.17,0.971,inactive
HOXB3 (homeobox B3),SID442902335,-1.05,-1.2,-0.911,inactive
PADI6 (peptidyl arginine deiminase 6),SID442888248,0.525,0.88,0.868,inactive
SIM2 (SIM bHLH transcription factor 2),SID442888879,0.97,1.2,-0.232,inactive
TNS3 (tensin 3),SID442887160,0.777,0.936,1.2,inactive
OTUD7A (OTU deubiquitinase 7A),SID442884507,-2.42,-2.26,-2.09,active
COG2 (component of oligomeric golgi complex 2),SID442900421,-0.86,-0.599,-0.812,inactive
RPLP1P5 (ribosomal protein lateral stalk subunit P1 pseudogene 5),SID442898293,0.00376,-0.834,-0.617,inactive
MED25 (mediator complex subunit 25),SID442896415,-0.357,-0.00427,-0.45,inactive
MITD1 (microtubule interacting and trafficking domain containing 1),SID442891683,1.28,-0.379,-0.13,inactive
CD8A (CD8 subunit alpha),SID442889074,0.68,0.929,0.239,inactive
GGCX (gamma-glutamyl carboxylase),SID442897451,-1.17,0.512,-0.499,inactive
DDR1 (discoidin domain receptor tyrosine kinase 1),SID442902753,-1.29,-1.11,-1.02,inactive
GSC (goosecoid homeobox),SID442889660,0.471,1.08,0.0308,inactive
PI4K2B (phosphatidylinositol 4-kinase type 2 beta),SID442898720,-0.707,-0.288,-0.594,inactive
FMR1 (fragile X messenger ribonucleoprotein 1),SID442889073,0.465,0.982,0.403,inactive
RARB (retinoic acid receptor beta),SID442899860,-0.318,-0.978,-0.743,inactive
ADCK1 (aarF domain containing kinase 1),SID442883312,3.14,3.64,3.14,active
MRPL20 (mitochondrial ribosomal protein L20),SID442884433,-2.51,-2.75,-1.08,active
PLCB3 (phospholipase C beta 3),SID442888500,0.603,0.792,0.73,inactive
DRD1 (dopamine receptor D1),SID442891880,-0.303,0.807,0.201,inactive
OR5H14 (olfactory receptor family 5 subfamily H member 14),SID442892043,0.907,-0.216,-0.0433,inactive
LOC107985476,SID442890441,0.385,0.736,0.129,inactive
PHF19 (PHD finger protein 19),SID442900849,-0.852,-1.35,-0.245,inactive
